The values below come from publication doi:10.1101/2020.06.02.129890 (bioRxiv, 2020).

By UniProt entry, the sequences of proteins in these tests, tags left out.
UniProt P15409: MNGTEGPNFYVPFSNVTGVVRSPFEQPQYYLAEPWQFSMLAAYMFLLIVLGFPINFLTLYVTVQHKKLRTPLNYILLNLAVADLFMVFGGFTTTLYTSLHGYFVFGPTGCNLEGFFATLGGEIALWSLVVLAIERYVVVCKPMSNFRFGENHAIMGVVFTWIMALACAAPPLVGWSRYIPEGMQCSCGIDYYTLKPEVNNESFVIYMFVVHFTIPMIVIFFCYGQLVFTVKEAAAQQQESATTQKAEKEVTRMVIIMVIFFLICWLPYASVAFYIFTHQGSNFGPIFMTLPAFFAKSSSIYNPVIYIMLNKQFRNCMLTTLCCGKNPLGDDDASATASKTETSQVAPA
UniProt P08100: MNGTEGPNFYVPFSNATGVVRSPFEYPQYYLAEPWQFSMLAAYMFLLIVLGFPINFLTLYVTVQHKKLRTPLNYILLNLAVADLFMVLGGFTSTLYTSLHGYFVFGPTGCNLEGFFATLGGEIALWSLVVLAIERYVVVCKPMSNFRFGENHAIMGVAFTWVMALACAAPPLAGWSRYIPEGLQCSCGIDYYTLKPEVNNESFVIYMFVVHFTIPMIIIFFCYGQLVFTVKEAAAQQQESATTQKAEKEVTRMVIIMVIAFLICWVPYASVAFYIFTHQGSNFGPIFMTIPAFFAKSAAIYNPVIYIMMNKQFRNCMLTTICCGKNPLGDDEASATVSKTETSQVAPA

Results are given in words; binding and its absence hold for the method and conditions named. For some of these results: Binding seen in cells or lysates may run through a third protein. Some results given as binding are weak or reduced against the parent protein; the word gives no strength.

In experiment [1] the target is Rhodopsin (endogenous in mouse retina) (mouse (endogenous in retina)) (UniProt P15409). Nature of the experiment: co-IP.
The target of experiment [2] is Rhodopsin overexpressed in HEK293 cells (pcDNA3 rod opsin construct) (UniProt P08100). Nature of the experiment: far-Western, overlay or dot blot.
Experiment [3] addresses Rhodopsin (endogenous in mouse retina) (mouse (endogenous in retina)) (UniProt P15409). Nature of the experiment: far-Western, overlay or dot blot.

Take “MYO1C (unconventional myosin, endogenous in mouse retina) (from UniProt Q9WTI7 1-1063)”: the binding result in experiment [1] was “binds”. On to “Purified recombinant full-length mouse MYO1C (from UniProt Q9WTI7 1-1063)”, for which the binding entry in experiment [2] and in experiment [3] was “binds” throughout.

B1: GFP-MYO1C-790-1028 (MYO1C tail domain, also known as the cargo domain) (domain or fragment, mouse, UniProt Q9WTI7-2 790-1028, looked up)
chain: PRNVLDTSWPTPPPALREASELLRELCMKNMVWKYCRSISPEWKQQLQQKAVASEIFKGKKDNYPQSVPRLFISTRLGTEEISPRVLQSLGSEPIQYAVPVVKYDRKGYKPRPRQLLLTPSAVVIVEDAKVKQRIDYANLTGISVSSLSDSLFVLHVQREDNKQKGDVVLQSDHVIETLTKTALSADRVNNININQGSITFAGGPGRDGIIDFTSGSELLITKAKNGHLAVVAPRLNSR
As for B1, the binding entry in experiment [2] is given as “binds”.
